# Results from the supplement of paper PMC8728848.
# This is one part of the list.
# What was measured:
# Test in all cases: glycan array binding signal (z-score within array); higher = stronger binding
# Conditions in all cases: glycan notation: IUPAC condensed, linker removed
# [1] = biological target: Gal(a1-3)Gal(b1-3)GlcNAc
# How it was run: (§1)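 Columns mapping to the same glycan were averaged after glycan names were converted to IUPAC-condensed notation. The data come from 3228 arrays in the Consortium for Functional Glycomics database, limited to those with an available protein sequence. Binding is reported as a within-array Z-score averaged across arrays of one protein sequence and across linkers.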
# [2] = biological target: Gal(a1-3)Gal(b1-3)GlcNAc(b1-2)Man
# How it was run: as §1
# [3] = biological target: Gal(a1-3)Gal(b1-3)GlcNAc(b1-2)Man(a1-3)[Gal(a1-3)Gal(b1-3)GlcNAc(b1-2)Man(a1-6)]Man(b1-4)GlcNAc(b1-4)GlcNAc
# How it was run: as §1
# [4] = biological target: Gal(a1-3)Gal(b1-3)GlcNAc(b1-3)GalNAc
# How it was run: as §1
# [5] = biological target: Gal(a1-3)Gal(b1-3)GlcNAc(b1-6)GalNAc
# How it was run: as §1
# [6] = biological target: Gal(a1-3)Gal(b1-3)[Fuc(a1-4)]GlcNAc(b1-2)Man(a1-3)[Gal(a1-3)Gal(b1-3)[Fuc(a1-4)]GlcNAc(b1-2)Man(a1-6)]Man(b1-4)GlcNAc(b1-4)GlcNAc
# How it was run: as §1
# [7] = biological target: Gal(a1-3)Gal(b1-4)Glc
# How it was run: as §1
# [8] = biological target: Gal(a1-3)Gal(b1-4)GlcNAc
# How it was run: as §1
# [9] = biological target: Gal(a1-3)Gal(b1-4)GlcNAc(b1-2)Man
# How it was run: as §1
# [10] = biological target: Gal(a1-3)Gal(b1-4)GlcNAc(b1-2)Man(a1-3)[Gal(a1-3)Gal(b1-4)GlcNAc(b1-2)Man(a1-6)]Man(b1-4)GlcNAc(b1-4)GlcNAc
# How it was run: as §1
# [11] = biological target: Gal(a1-3)Gal(b1-4)GlcNAc(b1-3)GalNAc
# How it was run: as §1
# [12] = biological target: Gal(a1-3)Gal(b1-4)GlcNAc(b1-6)GalNAc
# How it was run: as §1
# [13] = biological target: Gal(a1-3)Gal(b1-4)[Fuc(a1-3)]GlcNAc
# How it was run: as §1
# [14] = biological target: Gal(a1-3)Gal(b1-4)[Fuc(a1-3)]GlcNAc(b1-2)Man(a1-3)[Gal(a1-3)Gal(b1-4)[Fuc(a1-3)]GlcNAc(b1-2)Man(a1-6)]Man(b1-4)GlcNAc(b1-4)GlcNAc
# How it was run: as §1
# [15] = biological target: Gal(a1-3)GalNAc
# How it was run: as §1
# [16] = biological target: Gal(a1-3)[Gal(a1-4)]Gal(b1-4)GlcNAc
# How it was run: as §1
# [17] = biological target: Gal(a1-4)Gal(b1-3)GlcNAc(b1-2)Man(a1-3)[Gal(a1-4)Gal(b1-3)GlcNAc(b1-2)Man(a1-6)]Man(b1-4)GlcNAc(b1-4)GlcNAc
# How it was run: as §1
# [18] = biological target: Gal(a1-4)Gal(b1-4)Glc
# How it was run: as §1
# [19] = biological target: Gal(a1-4)Gal(b1-4)GlcNAc
# How it was run: as §1
# [20] = biological target: Gal(a1-4)Gal(b1-4)GlcNAc(b1-2)Man(a1-3)[Gal(a1-4)Gal(b1-4)GlcNAc(b1-2)Man(a1-6)]Man(b1-4)GlcNAc(b1-4)GlcNAc
# How it was run: as §1
# [21] = biological target: Gal(a1-4)Gal(b1-4)GlcNAc(b1-3)Gal(b1-4)Glc
# How it was run: as §1
# [22] = biological target: Gal(a1-4)GlcNAc
# How it was run: as §1
# [23] = biological target: Gal(a1-6)Glc
# How it was run: as §1
# [24] = biological target: Gal(b1-2)Gal
# How it was run: as §1
# [25] = biological target: Gal(b1-3)Gal
# How it was run: as §1
# [26] = biological target: Gal(b1-3)Gal(b1-4)GlcNAc
# How it was run: as §1
# [27] = biological target: Gal(b1-3)GalNAc
# How it was run: as §1
# [28] = biological target: Gal(b1-3)GalNAc(a1-3)[Fuc(a1-2)]Gal(b1-4)Glc
# How it was run: as §1
# [29] = biological target: Gal(b1-3)GalNAc(a1-3)[Fuc(a1-2)]Gal(b1-4)GlcNAc
# How it was run: as §1
# [30] = biological target: Gal(b1-3)GalNAc(b1-3)Gal
# How it was run: as §1
# [31] = biological target: Gal(b1-3)GalNAc(b1-3)Gal(a1-4)Gal(b1-4)Glc
# How it was run: as §1
# [32] = biological target: Gal(b1-3)GalNAc(b1-4)Gal(b1-4)Glc
# How it was run: as §1
# [33] = biological target: Gal(b1-3)GalNAc(b1-4)[Neu5Ac(a2-3)]Gal(b1-4)Glc
# How it was run: as §1
# [34] = biological target: Gal(b1-3)GlcNAc
# How it was run: as §1
# [35] = biological target: Gal(b1-3)GlcNAc(a1-3)Gal(b1-4)GlcNAc
# How it was run: as §1
# [36] = biological target: Gal(b1-3)GlcNAc(a1-6)Gal(b1-4)GlcNAc
# How it was run: as §1
# [37] = biological target: Gal(b1-3)GlcNAc(b1-2)Man
# How it was run: as §1
# [38] = biological target: Gal(b1-3)GlcNAc(b1-2)Man(a1-3)[Gal(b1-3)GlcNAc(b1-2)Man(a1-6)]Man(b1-4)GlcNAc(b1-4)GlcNAc
# How it was run: as §1
binder,measurement,setting,value
PX14404-bvu-534-26-534 (Bacteroides vulgatus) (protein) EDPRGKLTPENFFSTQDELNMSIYALYQKVNLSQVYTNMQLPQWQGDDITTNPGSNKQPAAEMDKFAAANNNKGVKDAWNMHYAIVKAANLIIQGASKTPTTQDEINIALGQAKFWRAYAYFTLVRLWGPLPMNLDNVNDDYTKPLSPVEEVYGHIVQDLTEAEAVLPTGYSGSPRFLNGVNVYVTRQAAKSTLAAVYMAMAGWPMNKTEYYAKAAEKAKEVIEGVNRGEYEYKLDKDYKDVYAMSNNYNNETVLGINYSPFVDWAQDSELTSCNQFESLGGWGDAWGEIRFWKEFPDGPRKDATYDPKIRLKDGTLVDWWELKEDGTPVVPEHHPMFSIFSVNWDPASKVNTSAPYDYTKPASQNMCNDHRHRIIRYSEVLLWYAEAKARTGQTDELAFKCLNDVRERAGLEPLTGLSADDLAEAAYKEHGWEVAGYWVALVTRRADQFRMNRLKDTFKERAENTAVEVADGILVKESVEYTNRTWSDNLMYLPYPDMDSQKNPNLVR,glycan array binding signal (z-score),[1],-0.454
same,glycan array binding signal (z-score),[2],-0.405
same,glycan array binding signal (z-score),[3],1.2
same,glycan array binding signal (z-score),[4],-0.041
same,glycan array binding signal (z-score),[5],-0.446
same,glycan array binding signal (z-score),[6],1.79
same,glycan array binding signal (z-score),[7],0.053
same,glycan array binding signal (z-score),[8],-0.582
same,glycan array binding signal (z-score),[9],-0.34
same,glycan array binding signal (z-score),[10],0.072
same,glycan array binding signal (z-score),[11],-0.423
same,glycan array binding signal (z-score),[12],-0.701
same,glycan array binding signal (z-score),[13],-1.29
same,glycan array binding signal (z-score),[14],-1.05
same,glycan array binding signal (z-score),[15],-0.314
same,glycan array binding signal (z-score),[16],3.57
same,glycan array binding signal (z-score),[17],-1.1
same,glycan array binding signal (z-score),[18],1.03
same,glycan array binding signal (z-score),[19],0.698
same,glycan array binding signal (z-score),[20],-0.464
same,glycan array binding signal (z-score),[21],-0.227
same,glycan array binding signal (z-score),[22],1.74
same,glycan array binding signal (z-score),[23],0.273
same,glycan array binding signal (z-score),[24],-0.94
same,glycan array binding signal (z-score),[25],-0.984
same,glycan array binding signal (z-score),[26],0.873
same,glycan array binding signal (z-score),[27],-0.314
same,glycan array binding signal (z-score),[28],0.069
same,glycan array binding signal (z-score),[29],-0.591
same,glycan array binding signal (z-score),[30],-0.619
same,glycan array binding signal (z-score),[31],-0.153
same,glycan array binding signal (z-score),[32],0.463
same,glycan array binding signal (z-score),[33],-0.231
same,glycan array binding signal (z-score),[34],-0.144
same,glycan array binding signal (z-score),[35],-1.41
same,glycan array binding signal (z-score),[36],-0.215
same,glycan array binding signal (z-score),[37],0.164
same,glycan array binding signal (z-score),[38],1.74

# Looked up one by one from above:
binder,measurement,setting,value
PX14404-bvu-534-26-534 (Bacteroides vulgatus) (protein) EDPRGKLTPENFFSTQDELNMSIYALYQKVNLSQVYTNMQLPQWQGDDITTNPGSNKQPAAEMDKFAAANNNKGVKDAWNMHYAIVKAANLIIQGASKTPTTQDEINIALGQAKFWRAYAYFTLVRLWGPLPMNLDNVNDDYTKPLSPVEEVYGHIVQDLTEAEAVLPTGYSGSPRFLNGVNVYVTRQAAKSTLAAVYMAMAGWPMNKTEYYAKAAEKAKEVIEGVNRGEYEYKLDKDYKDVYAMSNNYNNETVLGINYSPFVDWAQDSELTSCNQFESLGGWGDAWGEIRFWKEFPDGPRKDATYDPKIRLKDGTLVDWWELKEDGTPVVPEHHPMFSIFSVNWDPASKVNTSAPYDYTKPASQNMCNDHRHRIIRYSEVLLWYAEAKARTGQTDELAFKCLNDVRERAGLEPLTGLSADDLAEAAYKEHGWEVAGYWVALVTRRADQFRMNRLKDTFKERAENTAVEVADGILVKESVEYTNRTWSDNLMYLPYPDMDSQKNPNLVR,glycan array binding signal (z-score),[13],-1.29
same,glycan array binding signal (z-score),[17],-1.1
same,glycan array binding signal (z-score),[25],-0.984
